Data from the supplement of paper PMC12889115.
This is one part of the list. Values are raw readings; no control value is given beside them.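 First-pass screen: polymyxin B was added at a level that permeabilizes the Salmonella outer membrane while sparing the inner membrane. DMSO wells, with and without polymyxin B, defined maximum growth. Because plates differed from one another, each plate's data were ranked separately and the compounds with the lowest OD600 were carried forward as hits.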

System: Salmonella enterica serovar Typhimurium SL1344
Experiment: bacterial growth OD600 after 18 h with compound and polymyxin B; higher = more bacterial growth (less inhibition)
Conditions: 50 µM, Mueller-Hinton broth

Row | Compound | bacterial growth OD600 (polymyxin B 1 µg/mL) | bacterial growth OD600 (polymyxin B 0.75 µg/mL)
1 | CCC1CCCCN1Cc1nc(Cc2ccccc2Cl)no1 (stereo unspecified) | 0.83 | –
2 | CCN(CC1CCCO1)C(=O)CC1(c2ccccc2)CC(=O)N(CCCOc2cccnc2)C1=O (stereo unspecified) | – | 0.854
3 | CCOC(=O)C1CCCN(C(=O)c2coc(COc3cccc(F)c3F)n2)C1 (stereo unspecified) | 0.848 | –
4 | CC(C)CC(=O)Nc1ccnn1C1CCN(Cc2c[nH]nc2-c2ccccc2)CC1 | 0.826 | –
5 | COc1ccc(CN2CCC(n3nccc3NC(=O)C(C)(C)C)CC2)c(C)c1C | 0.919 | –
6 | O=C(NC1CCOCC1)c1ccc(OC2CCN(Cc3ccccn3)CC2)cc1 | 0.917 | –
7 | COc1cccc(-c2nn(-c3ccccc3)cc2CN2CCCC2)c1 | 1.1 | –
8 | CN1CCCC(CNC(=O)c2ccc(-c3ccccc3)cc2)C1 (stereo unspecified) | – | 0.691
9 | COCCN1CCCC2(CCN(C(=O)C(C)C)C2)C1=O (stereo unspecified) | 0.935 | –
10 | Cc1ccc(OCc2cc(C(=O)NCC(C)(C)N3CCOCC3)no2)cn1 | 0.855 | –
11 | COc1ccc(OC)c(CC(=O)NC2CCCN(C3Cc4ccccc4C3)C2)c1 (stereo unspecified) | 1 | –
12 | O=C(CCC1(Cc2ccc(F)cc2)CCC(=O)N1)NCc1ccc(OC(F)(F)F)cc1 (stereo unspecified) | – | 0.003
13 | CN(Cc1ccncn1)C(=O)CC(c1cccc(O)c1)c1ccccc1Cl (stereo unspecified) | 0.941 | –
14 | CCCCN(C)C(=O)c1nc2ccccn2c1CNCCc1nc2ccccc2n1C | 1.37 | –
15 | CCc1ccc(CN2CCCC(CNC(=O)COc3ccccc3OC)C2)cc1 (stereo unspecified) | 0.921 | –
16 | Cc1ccsc1C(=O)N(C)CC1CCCN(CCc2ccc(Cl)cc2)C1 (stereo unspecified) | 0.86 | –

Looked up above.
COc1ccc(CN2CCC(n3nccc3NC(=O)C(C)(C)C)CC2)c(C)c1C | bacterial growth OD600 (polymyxin B 1 µg/mL): 0.919
CN1CCCC(CNC(=O)c2ccc(-c3ccccc3)cc2)C1 (stereo unspecified) | bacterial growth OD600 (polymyxin B 0.75 µg/mL): 0.691

(listing goes on)

Row | Compound | bacterial growth OD600 (polymyxin B 1 µg/mL) | bacterial growth OD600 (polymyxin B 0.75 µg/mL)
17 | CC(Cc1cc(C(=O)NCc2cccc(Cl)c2)on1)c1ccccc1 (stereo unspecified) | – | 0.632
18 | COc1ccc(OCC(=O)N2CCCC(Nc3ccc(C)c(C)c3)C2)cc1 (stereo unspecified) | 0.647 | –
19 | CCOC(=O)CC1CCCCN1Cc1cnc(S(=O)(=O)CC)n1Cc1ccccc1 (stereo unspecified) | – | 0.916
20 | CCN1CCC(N2CCCC(N3CCN(c4cccc(C(F)(F)F)c4)CC3)C2)CC1 (stereo unspecified) | 0.927 | –
21 | O=C(N[C@H]1CCCCNC1=O)c1ccc(N2CCC(NC[C@H]3CCc4ccccc4O3)CC2)cc1 | – | 0.877
22 | COc1ccc(OCc2nc(C(=O)NCc3ccncc3)co2)cc1 | 1.01 | –
23 | CN(Cc1ccc(F)cc1)c1ccc(OCC(=O)NCCc2nc(-c3cccnc3)n[nH]2)nn1 | – | 0.896
24 | CC(=O)N1CCCN(c2nc3nonc3nc2N2CCCCCC2)CC1 | 1.12 | –
25 | CCCc1cc(CN(C)C(=O)CC2(c3cccc(C(F)(F)F)c3)CC(=O)N(CC)C2=O)n[nH]1 (stereo unspecified) | – | 0.005
26 | CCNC(=O)N1CCCC(CCc2ccc(OC)cc2)C1 (stereo unspecified) | – | 0.871
27 | Cc1cccc(CN2CCC(Oc3ccccc3C(=O)N3CCCC3)CC2)c1 | 1.1 | –
28 | CCCCc1nc(CN2CCC(C(=O)Nc3ccc(-n4cccn4)cc3)CC2)c[nH]1 | 0.943 | –
29 | Cc1ncoc1C(=O)N1CCC(n2nccc2NC(=O)CCOc2ccccc2)CC1 | 0.923 | –
30 | COc1cccc(CN2CCCC3(CCN(C(=O)C(C)(C)C)C3)C2=O)c1OC (stereo unspecified) | 0.8 | –
31 | C/C=C(\C)CN1CCC(C2CCN(Cc3cccnc3)CC2)C1 (stereo unspecified) | – | 0.998
